Measured values published in paper PMC5458179, “Oxidative DNA double strand breaks and autophagy in the antitumor effect of sterically hindered platinum(II) complexes in NSCLCs” (Oncotarget, 2017).

Columns and labels:
[1] = test system: A549 cells; assay: Cellular platinum uptake (ICP); assay type: cell-based; conditions: A549, 10 μM
[2] = test system: NCI-H1299 cells; assay: Cellular platinum uptake (ICP); assay type: cell-based; conditions: NCI-H1299, 10 μM

CC(C)C[NH+]1[C@@H]2CCCC[C@H]2[NH+](CC(C)C)[Pt-2]12[O]C(=O)CC(=O)[O]2 (stereo partly shown) [Complex 3]
Pt accumulation of complex 3 compared to complex 3a [1]: 2.4 times | Pt accumulation of complex 3 compared to oxaliplatin [1]: 2.0 times | Pt accumulation of complex 3 compared to complex 3a [2]: 2.0 times | Pt accumulation of complex 3 compared to oxaliplatin [2]: 1.9 times
